{"sequences": {"note": "The chains behind the UniProt entries cited, without tags or fusion partners. Where a name states a change or a piece, a line headed by the entry shows the natural chain unless it says otherwise.", "UniProt Q9UNA4": "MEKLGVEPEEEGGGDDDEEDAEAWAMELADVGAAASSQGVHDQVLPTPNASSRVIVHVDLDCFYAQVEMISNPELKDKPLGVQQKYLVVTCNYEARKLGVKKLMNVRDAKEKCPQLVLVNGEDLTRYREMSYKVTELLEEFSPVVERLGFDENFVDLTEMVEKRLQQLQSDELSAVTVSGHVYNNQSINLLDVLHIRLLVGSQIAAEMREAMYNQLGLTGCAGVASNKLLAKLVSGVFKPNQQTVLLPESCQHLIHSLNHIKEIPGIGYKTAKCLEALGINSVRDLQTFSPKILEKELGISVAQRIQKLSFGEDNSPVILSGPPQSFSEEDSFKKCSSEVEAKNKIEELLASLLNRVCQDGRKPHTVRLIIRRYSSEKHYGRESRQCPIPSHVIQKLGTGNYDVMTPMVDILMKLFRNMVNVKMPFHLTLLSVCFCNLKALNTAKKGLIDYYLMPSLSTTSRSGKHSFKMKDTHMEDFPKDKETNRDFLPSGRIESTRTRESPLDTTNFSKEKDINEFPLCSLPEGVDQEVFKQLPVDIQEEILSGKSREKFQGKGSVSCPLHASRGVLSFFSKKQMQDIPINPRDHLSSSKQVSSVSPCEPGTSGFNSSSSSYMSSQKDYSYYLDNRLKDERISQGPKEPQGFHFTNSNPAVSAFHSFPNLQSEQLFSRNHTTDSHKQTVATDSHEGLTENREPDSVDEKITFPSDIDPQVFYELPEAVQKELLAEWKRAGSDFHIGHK"}, "source": "PubChem BioAssay AID588590", "about": "(National Center for Advancing Translational Sciences (NCATS), 2011)", "note": "In all, about 390,000 compounds went through this assay and about 4,000 (1%) were called active. The shares of active, inactive and inconclusive entries below differ from those in the screen. Calls come from the whole dose curve; as a rule, active = well fitted inhibition curve with a large enough effect; inconclusive = small, poorly fitted or top-dose-only effect, or another doubt; inactive = no such curve, though single readings can be large or run the other way. Potencies beside an inconclusive call are fits to weak or partial responses and may not hold up. Potency is the fitted concentration of half-maximal effect.", "data": [{"target": "DNA polymerase iota (Homo sapiens) (UniProt Q9UNA4)", "test": "qHTS for Inhibitors of Polymerase Iota", "details": "Pol iota fluorescent replication assay, 10 min; series mostly up to 115 µM", "in_short": "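Pol iota at 10 nM preincubated 15 min with compounds at room temperature; reaction started with fluorescent substrate, 50 nM final. Fluorescence read kinetically at 0 and 10 min; buffer-only wells as negative control.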", "values": [{"smiles": "CCSc1cc(N2CCCC2)nc(-c2ccc(C)cc2)n1", "Potency": "inconclusive: 100 µM [inhibitor, partial curve, poor fit]"}, {"smiles": "N#CC1=C2SCN(Cc3ccccc3)CN2C(=O)CC1c1cccs1", "note": "(stereo not given)", "Potency": "inconclusive: 3.16 µM [inhibitor, single point]"}, {"smiles": "CCN(c1ccccc1)S(=O)(=O)c1ccc(OC)c(NC(=O)CN(C)C)c1", "Potency": "inconclusive: 39.8 µM [inhibitor, partial curve, poor fit]"}, {"smiles": "O=C(Nc1cccc(-c2csc(-c3ccccc3)n2)c1)c1cccs1", "Potency": "inconclusive: 112 µM [inhibitor, partial curve, poor fit]"}, {"smiles": "CCOC(=O)C(=Cc1ccc2c(c1)OCO2)c1ccccc1", "Potency": "inconclusive: 89.1 µM [inhibitor, single point]"}, {"smiles": "COC(=O)C1=CC(C(=O)c2cccs2)=NN(c2ccc(OC)cc2)C1C(=O)OC", "note": "(stereo not given)", "Potency": "inconclusive: 70.8 µM [inhibitor, single point]"}, {"smiles": "Cc1cc(-c2ccc(S(=O)(=O)N(C)c3ccc(C)c(C)c3)s2)on1", "Potency": "inconclusive: 79.4 µM [inhibitor, single point]"}, {"smiles": "N#Cc1c(-c2cccs2)nc(SCC(=O)c2ccc(Br)cc2)[nH]c1=O", "Potency": "inconclusive: 17.8 µM [inhibitor, full curve]"}, {"smiles": "O=C(COc1ccccc1F)OCc1cc(=O)n2nc(-c3cccs3)sc2n1", "Potency": "inconclusive: 89.1 µM [inhibitor, partial curve]"}, {"smiles": "O=C(O)c1ccc(CSc2n[nH]c(-c3ccco3)n2)cc1", "Potency": "active: 20 µM"}, {"smiles": "Cc1cccc(-n2c(SCC(=O)N3CC(=O)Nc4ccccc43)nc3ccccc3c2=O)c1C", "Potency": "inconclusive: 89.1 µM [inhibitor, single point]"}, {"smiles": "CC(=O)N1CCn2c3c(c(=O)c4cc(C)ccc42)CCC31", "note": "(stereo not given)", "Potency": "active: 22.4 µM"}, {"smiles": "Brc1ccc(Nc2ncnc3[nH]ncc23)cc1", "Potency": "inconclusive: 14.1 µM [inhibitor, partial curve, poor fit]"}, {"smiles": "COC(=O)C1=C(C)OC(N)=C(C#N)C1c1c(C)nn(-c2ccccc2)c1Cl", "note": "(stereo not given)", "Potency": "inconclusive: 28.2 µM [inhibitor, single point]"}, {"smiles": "COC(=O)COc1ccc2oc(=O)cc(-c3cc4ccccc4o3)c2c1", "Potency": "inconclusive: 35.5 µM [inhibitor, full curve, poor fit]"}, {"smiles": "CCOC(=O)c1c[nH]c2c(Cl)c(Cl)ccc2c1=O", "Potency": "inconclusive: 89.1 µM [inhibitor, single point]"}, {"smiles": "Cn1c(=O)[nH]c(=O)c2c1nc(N1CCCCC1)n2CCSc1ncccn1", "Potency": "inconclusive: 79.4 µM [inhibitor, single point]"}, {"smiles": "CCN(C[C@H]1N[C@@](C)(C(=O)OC)[C@H]2C(=O)N(Cc3ccccc3)C(=O)[C@@H]12)C(=O)COC", "Potency": "inconclusive: 25.1 µM [inhibitor, single point]"}, {"smiles": "NC(=O)C[C@H](N)c1cn([C@@H](CC(N)=O)C(=O)N2CCNCC2)nn1", "Potency": "inconclusive: 20 µM [inhibitor, full curve, poor fit]"}, {"smiles": "CCOC(=O)c1nc(C)sc1-c1ccnn1S(=O)(=O)c1ccc(C)cc1", "Potency": "inconclusive: 89.1 µM [inhibitor, partial curve]"}, {"smiles": "Cc1nn(-c2ccccc2)c(Cl)c1CN(C(=O)CCl)c1ccc(Cl)cc1", "Potency": "inconclusive: 56.2 µM [inhibitor, partial curve]"}, {"smiles": "Cc1[nH]c2ccccc2c1C(c1ccccn1)N1CCC(C(N)=O)CC1", "note": "(stereo not given)", "Potency": "inconclusive: 1.26 µM [inhibitor, partial curve, poor fit]"}, {"smiles": "NS(=O)(=O)c1ccc(-c2ccc(/C=C3\\C(=O)Nc4cc(Cl)ccc43)o2)cc1", "Potency": "inconclusive: 50.1 µM [inhibitor, partial curve, poor fit]"}, {"smiles": "O=C(CSc1nc(-c2ccccc2)no1)N1CCN(c2ccccc2F)CC1", "Potency": "active: 89.1 µM"}, {"smiles": "CCC(CC)C(=O)NC1CC(=O)N(c2ccc3c(c2)OCCO3)C1", "note": "(stereo not given)", "Potency": "inactive"}, {"smiles": "Cc1ccc(C)c(NC(=O)c2ccc3c(c2)N(Cc2ccc(F)cc2)C(=O)CS3=O)c1", "note": "(stereo not given)", "Potency": "inconclusive: 100 µM [inhibitor, partial curve, poor fit]"}, {"smiles": "O=C(O)c1ccc(OCc2ccc(C(=O)O)o2)cc1", "Potency": "inactive"}, {"smiles": "C=CCN1C(=O)C(Cc2ccc(OC)cc2)S/C1=N/N=C/c1ccco1", "note": "(stereo not given)", "Potency": "inconclusive: 22.4 µM [inhibitor, single point]"}, {"smiles": "O=C(c1ccc(F)cc1)N1CCN(C2CC3CCC2C3)CC1", "note": "(stereo not given)", "Potency": "inconclusive: 89.1 µM [inhibitor, single point]"}, {"smiles": "Cn1nc(-c2ccccc2)c(-c2nc(-c3cccc(Cl)c3)no2)c1Cl", "Potency": "inconclusive: 11.2 µM [inhibitor, single point]"}, {"smiles": "C(=N\\C(/N=C/c1ccco1)c1ccco1)/c1ccco1", "Potency": "inconclusive: 14.1 µM [inhibitor, full curve, poor fit]"}, {"smiles": "COC(=O)c1ccc(C)c(NC(=O)CCSc2ccccc2)c1", "Potency": "inconclusive: 31.6 µM [inhibitor, single point]"}, {"smiles": "O=C(CC1C(=O)NCCN1Cc1ccc(-c2ccccc2)cc1)NC1CCC1", "note": "(stereo not given)", "Potency": "inconclusive: 100 µM [inhibitor, single point]"}, {"smiles": "Cc1ccc(C)n1-c1ccc(C(=O)/C=C/N(C)C)cc1", "Potency": "inconclusive: 56.2 µM [inhibitor, partial curve, poor fit]"}, {"smiles": "O=C(CSc1nnnn1C1CCCC1)Nc1ccc2c(c1)OCO2", "Potency": "inconclusive: 70.8 µM [inhibitor, single point]"}, {"smiles": "CCN(c1cc(C)cc(C)c1)S(=O)(=O)c1nnc(NC(=O)c2cccs2)s1", "Potency": "inactive"}, {"smiles": "COC(=O)C(Cc1c[nH]c2ccccc12)NC(=O)COc1ccc(Cl)cc1Cl", "note": "(stereo not given)", "Potency": "inactive"}, {"smiles": "COc1ccc(OC)c(NC(=O)c2cc(-c3cc(Cl)ccc3O)n[nH]2)c1", "Potency": "inconclusive: 126 µM [inhibitor, single point]"}, {"smiles": "Cc1ccc(NCc2cccn2-c2nnc(N3CCC(C(=O)NC(C)C)CC3)s2)cc1", "Potency": "inconclusive: 28.2 µM [inhibitor, partial curve, poor fit]"}, {"smiles": "Brc1cc(Br)c2ncnc(N3CCCCC3)c2c1", "Potency": "inconclusive: 8.91 µM [inhibitor, partial curve]"}]}]}
